# Results taken from PMC1828611.
# Chains of the proteins cited; added tags and fusions are not shown. Lines headed by an entry give the natural chain unless they say otherwise; changes in a name come on top.
# UniProt Q9VCQ7: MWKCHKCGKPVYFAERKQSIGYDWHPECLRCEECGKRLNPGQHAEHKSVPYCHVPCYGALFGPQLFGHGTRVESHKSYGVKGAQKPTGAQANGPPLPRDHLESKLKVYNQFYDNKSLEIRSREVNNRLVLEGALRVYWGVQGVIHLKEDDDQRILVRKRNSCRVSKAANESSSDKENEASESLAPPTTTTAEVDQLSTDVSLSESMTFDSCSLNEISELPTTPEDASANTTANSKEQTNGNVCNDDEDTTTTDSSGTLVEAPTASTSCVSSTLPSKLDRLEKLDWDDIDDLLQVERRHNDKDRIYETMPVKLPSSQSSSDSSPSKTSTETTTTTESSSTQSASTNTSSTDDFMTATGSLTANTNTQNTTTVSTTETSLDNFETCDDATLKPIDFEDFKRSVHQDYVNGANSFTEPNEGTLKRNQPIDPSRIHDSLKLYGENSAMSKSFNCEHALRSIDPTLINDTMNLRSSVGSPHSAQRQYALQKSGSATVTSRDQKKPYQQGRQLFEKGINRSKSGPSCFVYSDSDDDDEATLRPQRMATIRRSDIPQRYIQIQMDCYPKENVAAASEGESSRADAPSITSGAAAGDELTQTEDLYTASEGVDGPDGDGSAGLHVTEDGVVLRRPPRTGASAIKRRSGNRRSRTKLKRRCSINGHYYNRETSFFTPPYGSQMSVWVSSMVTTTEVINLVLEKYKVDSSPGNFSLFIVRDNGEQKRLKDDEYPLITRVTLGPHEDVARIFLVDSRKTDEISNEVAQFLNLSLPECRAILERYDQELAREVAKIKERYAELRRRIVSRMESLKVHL
# Tests used:
# [1] = target: T1, Salvador (Sav), endogenous (Drosophila melanogaster (endogenous in Kc cells)) (UniProt Q9VCR6); experiment: co-IP; endogenous proteins immunoprecipitated from Kc cell lysates with dRASSF antibodies (or Sav antibodies, Figure S2C); control Myc antibodies; blotted with Hpo66 and dRASSF antibodies
# T1 sequence: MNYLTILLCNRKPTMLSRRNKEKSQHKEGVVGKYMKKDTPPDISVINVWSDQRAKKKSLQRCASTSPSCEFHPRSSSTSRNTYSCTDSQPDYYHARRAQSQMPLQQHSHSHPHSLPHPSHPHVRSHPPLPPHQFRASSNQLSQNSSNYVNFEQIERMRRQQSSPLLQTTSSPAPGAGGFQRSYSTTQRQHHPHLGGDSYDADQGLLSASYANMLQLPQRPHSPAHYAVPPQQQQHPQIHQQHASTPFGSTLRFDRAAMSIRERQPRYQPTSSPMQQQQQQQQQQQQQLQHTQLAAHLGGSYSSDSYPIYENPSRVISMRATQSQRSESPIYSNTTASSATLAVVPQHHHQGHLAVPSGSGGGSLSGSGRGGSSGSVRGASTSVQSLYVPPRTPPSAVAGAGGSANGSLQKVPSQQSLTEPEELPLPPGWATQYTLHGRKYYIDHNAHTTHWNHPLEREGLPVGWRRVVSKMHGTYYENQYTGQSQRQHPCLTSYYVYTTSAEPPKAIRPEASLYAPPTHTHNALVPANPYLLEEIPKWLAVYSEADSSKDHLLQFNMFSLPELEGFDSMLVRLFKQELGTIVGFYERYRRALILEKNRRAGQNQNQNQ
# [2] = target: T2, Sav-HA (Drosophila melanogaster) (UniProt Q9VCR6); experiment: co-IP; Hpo-Myc, Sav-HA and GFP-dRASSF cotransfected in Kc cells; anti-Myc, anti-HA, anti-dRASSF or control (anti-Flag) immunoprecipitates blotted for GFP-dRASSF, Sav-HA, Hpo-Myc and phospho-MST1
# T2 sequence: T1 sequence
# [3] = target: T3, Hpo-Myc (Drosophila melanogaster) (UniProt Q8T0S6); experiment: as above
# T3 sequence: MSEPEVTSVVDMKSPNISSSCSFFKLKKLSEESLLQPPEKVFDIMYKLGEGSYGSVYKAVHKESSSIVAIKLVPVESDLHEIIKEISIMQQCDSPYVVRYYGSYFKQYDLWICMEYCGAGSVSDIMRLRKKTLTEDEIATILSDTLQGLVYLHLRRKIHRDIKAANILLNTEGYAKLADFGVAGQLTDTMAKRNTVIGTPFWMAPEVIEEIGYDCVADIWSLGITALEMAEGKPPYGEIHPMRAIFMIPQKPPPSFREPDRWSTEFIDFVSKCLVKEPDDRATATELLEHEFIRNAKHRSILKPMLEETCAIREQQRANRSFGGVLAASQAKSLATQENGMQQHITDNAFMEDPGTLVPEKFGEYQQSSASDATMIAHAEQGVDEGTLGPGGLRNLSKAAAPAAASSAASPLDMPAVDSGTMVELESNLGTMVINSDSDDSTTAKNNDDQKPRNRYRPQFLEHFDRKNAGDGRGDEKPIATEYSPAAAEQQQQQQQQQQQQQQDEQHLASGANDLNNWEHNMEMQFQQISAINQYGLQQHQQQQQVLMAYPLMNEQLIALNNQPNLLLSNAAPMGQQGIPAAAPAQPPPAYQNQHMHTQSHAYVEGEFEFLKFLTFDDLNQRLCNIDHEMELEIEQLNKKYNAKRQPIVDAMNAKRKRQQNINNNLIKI
binding [1],binding [2],binding [3],Substance
no binding,–,–,"Drosophila RASSF ortholog (dRASSF), endogenous (from UniProt Q9VCQ7)"
–,no binding,binds,GFP-dRASSF (Drosophila melanogaster)

# No constants are given. Whether binding was seen depends on the method and setting. Binding seen in cells or lysates may run through a third protein. For part of these data: A result given as binding can be weak or reduced; the word gives no strength. For part of these data: Where a sequence is shown, tags or fusion partners need not be part of it.
